Test results published in publication PMC8771830.

Protein sequences, listed by entry. Tags and fused reporters are not part of them. Lines headed by an entry give the natural chain unless they say otherwise; changes in a name come on top.
UniProt Q08369: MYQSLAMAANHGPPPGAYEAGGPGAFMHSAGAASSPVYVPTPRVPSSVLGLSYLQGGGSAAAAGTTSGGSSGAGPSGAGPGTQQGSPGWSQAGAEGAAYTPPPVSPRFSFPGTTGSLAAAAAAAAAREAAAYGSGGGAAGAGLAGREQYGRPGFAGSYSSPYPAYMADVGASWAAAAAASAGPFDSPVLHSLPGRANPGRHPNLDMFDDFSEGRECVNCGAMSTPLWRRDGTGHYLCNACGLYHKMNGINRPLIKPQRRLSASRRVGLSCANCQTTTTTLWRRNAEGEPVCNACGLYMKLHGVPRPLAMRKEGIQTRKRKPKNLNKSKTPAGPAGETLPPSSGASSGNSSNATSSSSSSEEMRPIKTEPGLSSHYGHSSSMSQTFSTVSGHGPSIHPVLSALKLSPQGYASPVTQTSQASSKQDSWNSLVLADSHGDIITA

Assays:
FLAG-GATA4 [1] = target: FLAG-GATA4 (UniProt Q08369); assay: streptavidin DNA pull-down, Western blot; details: 20 mM Hepes pH 7.9, 1.5 mM MgCl2, 400 mM NaCl, 0.2 mM EDTA, 25% glycerol, 0.02% Tween, 0.3 mg/ml BSA, 0.1 mg/ml salmon sperm DNA, 2 h at 4 C, protein in a lysate after overexpression, protein details: FLAG, label: 5' biotin on sense strand
FLAG-GATA4 [2] = target: FLAG-GATA4 (UniProt Q08369); assay: streptavidin DNA pull-down, anti-GATA4/FLAG Western blot; details: without p300 (p300 increased recruitment); 20 mM Hepes pH 7.9, 1.5 mM MgCl2, 400 mM NaCl, 0.2 mM EDTA, 25% glycerol, 0.02% Tween, 0.3 mg/ml BSA, 0.1 mg/ml salmon sperm DNA, 2 h at 4 C; protein in a lysate after overexpression; protein details: FLAG; label: 5' biotin on sense strand

Measured: binding result

CCTCTAGAGCCGGGTCTTATCTCCGGCTGCACGTTGC (double strand) [ET-1 probe]
binds: FLAG-GATA4 [1]; HA-p300 and GMP (GATA4 308-326 fragment) co-expressed, recruitment not suppressed | FLAG-GATA4 [1]; HA-p300 co-expressed (acetylation), recruitment increased | FLAG-GATA4 [2]

Construct, isoform or probe ends are uncertain for at least one entry. Where cells or extracts were used, other partners may take part. For part of these data: At least one verdict was read from the data and is not stated in words by the source.
